Measured values: patent US20040171795A1, “Novel peptides” (priority 2000, published 2004)
At least one peptide structure holds a part that was inferred or is arguable (an end, a ring closure or a residue). Where no end group is shown, it is not given here.

Assays:
[1] = Measurement of turbidity in BSA; format: physicochemical; details: BSA 1%, peptide 50 μM, absorbance at 600 nm
Protocol: The solutions were evaluated for their absorbance at a wavelength of 600 nm by using a spectrophotometer (DU640, manufactured by Beckman).

[2] = Affinity for phosphatidyl serine (EIA, inhibition of human Factor VIII binding); details: procedure of Example 20
Protocol: The specific affinity of the peptide for phosphatidyl serine was evaluated by measuring activity of the peptide for inhibiting the binding of the human Factor VIII to phosphatidyl serine by using human Factor VIII which is known to bind to phosphatidyl serine but not to phosphatidyl choline in the presence of serum albumin. To be more specific, 100 μL of ethanol solution containing 10 μg/mL of phospholipids at a phosphatidyl serine (manufactured by SIGMA): phosphatidyl choline (manufactured by SIGMA) ratio of 3:7 was added to the wells of a 96 well plate (Immulon I, manufactured by Dynatech), and exsiccated by using a centrifugal evaporator (EC-95C, manufactured by Sakuma Seisakusho) at 40° C. for 40 minutes. […]
After the completion of the reaction, the human Factor VIII that became bound to the phosphatidyl serine was measured by enzyme immunoassay (EIA) in accordance with the general procedure described in a book (“Enzyme Immunoassay (3rd ed.)”, Eiji Ishikawa et al., Igaku-Shoin, 1987). […]

LARLLARLLARLLRALLRALLRAL [SEQ ID NO:27, reference compound]
OD 600 [1]: ≥ 1 | affinity for phosphatidyl serine [2]: no affinity for phosphatidyl serine
